Data from patent US10221440B2, “Method for determining the sensitivity of microorganisms to antimicrobial substances” (priority 2012, dated 2019).
At least one structure is not confirmed: it was looked up by name or label, or the drawing left a doubt.

Tested on: microorganisms in sputum of a patient
Assay: Choosing an antibiotic for respiratory diseases, sputum of a patient
Format: cell-based, bacteria

`C[C@H]1COc2c(N3CCN(C)CC3)c(F)cc3c(=O)c(C(=O)O)cn1c23` [levofloxacin, Levofloxacin] was tested, and the “growth by microscopic investigation of smears” value (after 24 hours, control more than 12 morphotypes) was “no growth” and the “growth in the medium that contained the antibiotic” value (levofloxacin 10 μg/ml in enriched Brucella Agar with Haemophilus influenzae, 37° C., after 4, 6, 12, 20 and 24 hours) was “no sign of growth”.
